Patent US7300655
Substitutions are numbered along the chain they refer to. Results are given in words; binding and its absence hold for the method and conditions named. Some binding calls cover weakened binding; strength is not graded here.

T1: alpha-fetoprotein (UniProt P02771)
T1 sequence (looked up): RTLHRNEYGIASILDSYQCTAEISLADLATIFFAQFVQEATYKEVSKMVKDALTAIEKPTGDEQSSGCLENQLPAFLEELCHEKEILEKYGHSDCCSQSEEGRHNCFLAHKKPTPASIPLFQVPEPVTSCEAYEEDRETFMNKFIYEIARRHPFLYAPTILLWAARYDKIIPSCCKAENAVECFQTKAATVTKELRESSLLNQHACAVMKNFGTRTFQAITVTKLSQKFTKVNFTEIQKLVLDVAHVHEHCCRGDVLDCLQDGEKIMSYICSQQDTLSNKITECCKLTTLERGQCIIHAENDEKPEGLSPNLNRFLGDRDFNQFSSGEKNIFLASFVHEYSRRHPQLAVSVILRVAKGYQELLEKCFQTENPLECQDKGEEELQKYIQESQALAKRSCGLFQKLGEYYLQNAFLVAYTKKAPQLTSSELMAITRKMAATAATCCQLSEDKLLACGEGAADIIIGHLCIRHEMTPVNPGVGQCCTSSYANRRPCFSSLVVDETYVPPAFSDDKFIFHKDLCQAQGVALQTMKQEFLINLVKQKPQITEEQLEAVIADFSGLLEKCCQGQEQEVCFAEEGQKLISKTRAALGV

B1: hImmu31T69 (antibody, human IgG1, V domains shown)
VH: QVQLQQSGAEVKKPGSSVKVSCKASGYAFTSYVIHWVRQAPGQGLYWIGYIHPYNGGTKYNEKFKGKATITADESTNTAYMELSSLRSEDTAFYFCARSGGGDPFAYWGQGSLVTVSS
VL: DIQLTQSPSSLSASVGDRVTITCKASQDINKYIGWYQQKPGKAPKLLMHYTSALLPGIPSRFSGSGSGTDYTFTISSLQPEDIATYYCLQYDDLWTFGGGTKLQIKR
B2: murine Immu31 (antibody, V domains shown)
VH: VKLQESGPELVKPGASVKMSCKASGYAFTSYVIHWVRQKPGQGLYWIGYIHPYNGGTKYNEKFKGKATLTSDKSSSTTYMELSSLTSEDSAVYYCARSGGGDPFAYWGQGTLVTVSA
VL: DIQLTQSPSSLSASLGGKVTITCKASQDINKYIGWYQHKPGKGPRLLMHYTSALLPGIPSRFSGSGSGRDYSFSISNLEPEDIATYYCLQYDDLWTFGGGTKLEMKR
B3: chimeric Immu31 (antibody, V domains shown)
VH: QVQLQESGPELVKPGASVKMSCKASGYAFTSYVIHWVRQKPGQGLYWIGYIHPYNGGTKYNEKFKGKATLTSDKSSSTTYMELSSLTSEDSAVYYCARSGGGDPFAYWGQGTTVTVSS
VL: B2 VL with M105I

What was measured:
[1] = molecular target: T1, alpha-fetoprotein; assay: competition ELISA on AFP-coated wells; competitor biotinylated murine Immu31
[2] = molecular target: T1, alpha-fetoprotein; assay: competition ELISA on AFP-coated wells; competitor biotinylated murine Immu31 (FIG. 6 chart A)
[3] = molecular target: T1, alpha-fetoprotein; assay: competition ELISA on AFP-coated wells; competitor biotinylated murine Immu31 (FIG. 3 legend)

Binder | binding [1] | binding [2] | binding [3]
B1 | binds | binds | –
B2 | binds | binds | binds
B3 | binds | binds | binds
